Reference: article PMC10130170
Results are given in words; binding and its absence hold for the method and conditions named. In cells and extracts the contact can be indirect. Some entries that bind do so weakly or less than the wild type.

Chains of the proteins cited; added tags and fusions are not shown.
UniProt P49841: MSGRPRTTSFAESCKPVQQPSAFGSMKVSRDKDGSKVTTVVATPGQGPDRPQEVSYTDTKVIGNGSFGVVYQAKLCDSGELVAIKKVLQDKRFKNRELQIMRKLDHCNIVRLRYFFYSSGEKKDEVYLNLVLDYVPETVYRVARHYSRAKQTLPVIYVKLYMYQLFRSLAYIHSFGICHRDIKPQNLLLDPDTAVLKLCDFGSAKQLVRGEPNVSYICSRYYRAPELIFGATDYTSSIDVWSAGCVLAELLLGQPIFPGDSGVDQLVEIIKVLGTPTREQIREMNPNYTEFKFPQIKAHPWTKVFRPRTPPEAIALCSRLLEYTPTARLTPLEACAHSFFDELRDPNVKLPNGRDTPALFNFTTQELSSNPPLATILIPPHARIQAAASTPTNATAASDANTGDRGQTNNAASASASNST
UniProt Q9Y297: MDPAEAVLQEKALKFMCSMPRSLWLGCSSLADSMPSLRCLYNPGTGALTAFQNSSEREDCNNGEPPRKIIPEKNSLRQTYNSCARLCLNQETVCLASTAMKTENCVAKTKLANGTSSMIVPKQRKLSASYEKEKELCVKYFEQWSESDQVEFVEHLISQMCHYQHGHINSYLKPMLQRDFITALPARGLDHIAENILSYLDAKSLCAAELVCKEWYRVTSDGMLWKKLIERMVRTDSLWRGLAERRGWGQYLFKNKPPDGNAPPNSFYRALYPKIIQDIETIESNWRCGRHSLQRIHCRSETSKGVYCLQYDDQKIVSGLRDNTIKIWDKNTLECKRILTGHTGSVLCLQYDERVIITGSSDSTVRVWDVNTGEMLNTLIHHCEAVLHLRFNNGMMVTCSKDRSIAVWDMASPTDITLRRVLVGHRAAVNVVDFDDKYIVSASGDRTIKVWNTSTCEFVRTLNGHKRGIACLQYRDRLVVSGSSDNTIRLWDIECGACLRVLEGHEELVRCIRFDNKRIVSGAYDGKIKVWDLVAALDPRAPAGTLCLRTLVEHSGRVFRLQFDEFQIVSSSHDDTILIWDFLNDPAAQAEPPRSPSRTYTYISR

Key:
Flag-GSK3β = Flag-GSK3β (UniProt P49841); assay: co-IP; HEK293T cells overexpressing the Flag-tagged bait, treated with NaB for 6 h or with NaB in combination with LiCl; CHAPS lysis buffer; lysates incubated with anti-Flag M2 beads for 2-3 h; NRF2 detected by Western blot
Flag-β-TRCP1 = Flag-β-TRCP1 (UniProt Q9Y297); assay: as above

B1: nuclear factor erythroid 2-related factor 2 (NRF2) (protein, UniProt Q16236 1-605)
chain: MMDLELPPPGLPSQQDMDLIDILWRQDIDLGVSREVFDFSQRRKEYELEKQKKLEKERQEQLQKEQEKAFFAQLQLDEETGEFLPIQPAQHIQSETSGSANYSQVAHIPKSDALYFDDCMQLLAQTFPFVDDNEVSSATFQSLVPDIPGHIESPVFIATNQAQSPETSVAQVAPVDLDGMQQDIEQVWEELLSIPELQCLNIENDKLVETTMVPSPEAKLTEVDNYHFYSSIPSMEKEVGNCSPHFLNAFEDSFSSILSTEDPNQLTVNSLNSDATVNTDFGDEFYSAFIAEPSISNSMPSPATLSHSLSELLNGPIDVSDLSLCKAFNQNHPESTAEFNDSDSGISLNTSPSVASPEHSVESSSYGDTLLGLSDSEVEELDSAPGSVKQNGPKTPVHSSGDMVQPLSPSQGQSTHVHDAQCENTPEKELPVSPGHRKTPFTKDKHSSRLEAHLTRDELRAKALHIPFPVEKIINLPVVDFNEMMSKEQFNEAQLALIRDIRRRGKNKVAAQNCRKRKLENIVELEQDLDHLKDEKEKLLKEKGENDKSLHLLKKQLSTLYLEVFSMLRDEDGKPYSPSEYSLQQTRDGNVFLVPKSKKPDVKKN
- binding (Flag-GSK3β): binds
- binding (Flag-β-TRCP1): binds
